The target of assay [1] is T1, XAC1-TAP (eXpression ACtivator 1, Tb927.7.2780, with C-terminal tandem affinity purification tag) (Trypanosoma brucei) (UniProt Q57Y88).
T1 sequence: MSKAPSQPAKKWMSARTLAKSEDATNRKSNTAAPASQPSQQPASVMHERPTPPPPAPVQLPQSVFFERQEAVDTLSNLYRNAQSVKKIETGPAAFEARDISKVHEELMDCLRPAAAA
The assay is described as follows: affinity purification with mass spectrometry.

Assay [2] has as its target T2, MKT1L-TAP (Trypanosoma brucei) (UniProt Q38C92).
T2 sequence: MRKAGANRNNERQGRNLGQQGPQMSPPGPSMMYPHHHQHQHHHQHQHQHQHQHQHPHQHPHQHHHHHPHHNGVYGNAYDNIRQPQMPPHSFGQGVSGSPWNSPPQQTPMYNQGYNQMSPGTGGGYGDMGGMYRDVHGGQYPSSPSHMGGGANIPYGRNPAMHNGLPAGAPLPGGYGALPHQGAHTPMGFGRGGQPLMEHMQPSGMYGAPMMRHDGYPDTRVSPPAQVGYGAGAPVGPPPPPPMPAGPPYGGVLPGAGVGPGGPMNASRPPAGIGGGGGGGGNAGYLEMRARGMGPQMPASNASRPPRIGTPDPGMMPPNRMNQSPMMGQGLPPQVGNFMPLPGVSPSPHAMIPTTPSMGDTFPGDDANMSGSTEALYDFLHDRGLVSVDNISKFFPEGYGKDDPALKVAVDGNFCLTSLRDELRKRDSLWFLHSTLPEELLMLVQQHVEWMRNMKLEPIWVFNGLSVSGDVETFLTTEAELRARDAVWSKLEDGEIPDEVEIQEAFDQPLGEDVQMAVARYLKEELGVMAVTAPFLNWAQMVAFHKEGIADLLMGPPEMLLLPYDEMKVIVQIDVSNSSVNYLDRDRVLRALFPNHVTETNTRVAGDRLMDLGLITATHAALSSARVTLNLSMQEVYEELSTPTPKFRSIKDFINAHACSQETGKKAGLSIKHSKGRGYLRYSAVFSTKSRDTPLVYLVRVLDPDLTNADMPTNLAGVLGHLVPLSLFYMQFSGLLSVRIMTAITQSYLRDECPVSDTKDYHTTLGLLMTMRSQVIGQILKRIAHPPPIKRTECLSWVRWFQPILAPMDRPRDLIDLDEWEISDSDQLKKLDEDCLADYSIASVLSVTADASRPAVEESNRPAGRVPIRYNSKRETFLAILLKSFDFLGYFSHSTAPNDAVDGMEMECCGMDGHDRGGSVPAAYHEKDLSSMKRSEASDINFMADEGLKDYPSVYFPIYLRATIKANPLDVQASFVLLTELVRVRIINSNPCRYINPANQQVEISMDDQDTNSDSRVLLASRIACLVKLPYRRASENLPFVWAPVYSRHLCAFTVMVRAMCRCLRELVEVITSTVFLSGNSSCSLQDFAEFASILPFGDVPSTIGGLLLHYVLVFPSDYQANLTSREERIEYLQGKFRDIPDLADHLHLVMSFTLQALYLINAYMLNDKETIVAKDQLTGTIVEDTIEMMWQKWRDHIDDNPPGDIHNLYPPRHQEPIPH
Briefly: affinity purification with mass spectrometry.

Results are given in words; binding and its absence hold for the method and conditions named. Binding seen in cells or lysates may run through a third protein. Here binding means that the protein was enriched with, or labelled near, the bait; the list need not be complete. No binding means not detected with the bait. For some of these results: Where a sequence is shown, tags or fusion partners need not be part of it.

From paper doi:10.1101/2020.03.02.973057 come the findings set out here.

With CFB2 (from UniProt Q4GYB3), the binding result in assay [1] was “binds”. Consider DHH1 (from UniProt Q38BK1), for which, in assay [1], the binding entry is reported as “binds”.

Take DRBD2 (from UniProt Q38D54): the binding entry in assay [1] is given as “binds”.

Consider DRBD3/PTB1 (from UniProt Q38EA2), for which, in assay [1], the binding result is on record as “binds”. Same read-out and setting: the entry for EIF4E6 (from UniProt Q57V43) is “binds”; for EIF4G5 (from UniProt Q57VY5) it is “binds”; for G5-IP it is “binds”.

Consider PABP1, for which the binding entry in assay [1] is listed as “no binding”. As to PUF6, the binding entry in assay [1] is on record as “binds”. In the case of PUF9 (from UniProt Q4GYW2), the binding entry in assay [1] is listed as “binds”. On to SKP1, for which the binding entry in assay [1] is given as “binds”.

With Tb927.8.1290 (from UniProt Q57VM6), the binding entry in assay [1] is “binds”.

Consider Tb927.10.15310, for which, in assay [1], the binding result is “binds”. Still for that read-out and setting: the entry for ZC3H28 is “binds”; for ZC3H32 (from UniProt Q38B78) it is “binds”; for initiation complex EIF4E3-G4 it is “no binding”. Regarding initiation complex EIF4E4-G3, in assay [1], the binding result was “no binding”. For the substance “translation helicase eIF4A1 (from UniProt Q38F76)”, the binding result in assay [2] was “no binding”; in assay [1], “binds”.
